For 42 sequences, binding signal results are on record in publication PMC7819943, “Rice protein-binding microarrays: a tool to detect cis-acting elements near promoter regions in rice”.

Protein sequences, listed by entry. Tags and fused reporters are not part of them.
UniProt Q0JBA9, entry or part of it: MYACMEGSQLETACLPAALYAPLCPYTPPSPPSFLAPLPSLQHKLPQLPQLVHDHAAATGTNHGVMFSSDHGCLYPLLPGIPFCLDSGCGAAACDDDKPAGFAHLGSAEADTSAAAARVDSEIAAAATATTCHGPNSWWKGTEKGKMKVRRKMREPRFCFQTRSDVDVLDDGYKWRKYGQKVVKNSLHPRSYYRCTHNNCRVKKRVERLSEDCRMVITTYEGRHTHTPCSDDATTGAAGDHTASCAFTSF

The other results are listed elsewhere or left out.

The target of this assay is OsWRKY34 (Oryza sativa, UniProt Q0JBA9 1-250). The assay can be described thus: protein-binding microarray (RPBM); PBS, 2% BSA, 51.3 ng/ul salmon testes DNA, 50 uM zinc acetate, 200 nM TF, 25 C, 1 h; high values mean tight binding. Particulars: protein: recombinant; tags: N-terminal polyhistidine and DsRed monomer fusion (pET32a); label: CyDye5-dUTP incorporated in the synthesized complementary strand; 3' TTTTT single-stranded linker to array surface; dsDNA, one strand shown. In outline:
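Binding signal here means per-feature fluorescence intensity in arbitrary units. The values were read on an Axon 4000B scanner after a custom Agilent array, double-stranded by primer extension with Cy5-dUTP, was incubated with 200 nM protein at 25 °C for 1 h in PBS with 2% BSA, salmon testes DNA and 50 µM zinc acetate, then washed. The proteins were transcription factors with an N-terminal polyhistidine tag and DsRed, expressed in E. coli BL21-CodonPlus and purified on Ni–NTA.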
Consider “TGCATTTCAATTCAAATTTAAGTTGATTCGTTGACTTGTTCGGAGTCACCTAGTGCAG”, for which the binding signal is 10100 fluorescence intensity (a.u.).

Take “TCCCTCGTCGTCGTCGTCCCTGCGCCGCGGGGCGGGGCGGCGGAGTCACCTAGTGCAG”: the binding signal was 13700 fluorescence intensity (a.u.).

Regarding “TGTTTCAACGTGTATTTTCATCATGTTTCATAAGCTTTTTCGGAGTCACCTAGTGCAG”, the binding signal is 9190 fluorescence intensity (a.u.).

Consider “CAAGCTATTTCTTGCATCATATAACATATTTTCAGCCATTCGGAGTCACCTAGTGCAG”, for which the binding signal is 8360 fluorescence intensity (a.u.).

“ATTTACTTGATTTCTCATATATCATTGGGTTTGTTTCTATCGGAGTCACCTAGTGCAG”: the binding signal is 9590 fluorescence intensity (a.u.).

Regarding “AACGTGAGGTTAGCTGAAATTTGCTCTTTTTTTTTTTTTTCGGAGTCACCTAGTGCAG”, the binding signal was 9740 fluorescence intensity (a.u.).

As for “ATTTAGTACTGATTTTTTTTCTCATCAATACAATCACTACCGGAGTCACCTAGTGCAG”, the binding signal is 8280 fluorescence intensity (a.u.).

On to “CGAGGTTTCTTATTTTATCTTATCTGTGGAAATAGTTTTCCGGAGTCACCTAGTGCAG”, for which the binding signal was 8460 fluorescence intensity (a.u.).

As for “CGAGATTATTTATTTTTGTACTACATTTGCGATTATTATTCGGAGTCACCTAGTGCAG”, the binding signal was 8970 fluorescence intensity (a.u.).

In the case of “AGTTTTTTCCTTTTTCCTGTCCCAATGTTGCGCGTTCGAACGGAGTCACCTAGTGCAG”, the binding signal was 8730 fluorescence intensity (a.u.).

Take “TGTTGTTTCGTGTGTGGGCTGTGGCTGCTGATGGCTGGATCGGAGTCACCTAGTGCAG”: the binding signal was 10500 fluorescence intensity (a.u.).

With “GCACCATCTCCAGTTCCAAGTTCCAATTTTACAACTCTCCCGGAGTCACCTAGTGCAG”, the binding signal was 9720 fluorescence intensity (a.u.).

On to “AACAATGCCAAATCCACCGGTCACAGGATGCCACTGCCTCCGGAGTCACCTAGTGCAG”, for which the binding signal is 8760 fluorescence intensity (a.u.).

Take “CTACCCTATGCTATGAGACCGCTCTTATTCCGGGGTTTAACGGAGTCACCTAGTGCAG”: the binding signal is 9760 fluorescence intensity (a.u.).

For the sequence “TCCTGTGCGCCTCCCTCGAGCGTGTGACTGTGTTTGTGACCGGAGTCACCTAGTGCAG”, the binding signal is 8710 fluorescence intensity (a.u.).

For the sequence “CCTTTCCATTTCTGCAGAACTATCCTAGTGTCATAGTCTCCGGAGTCACCTAGTGCAG”, the binding signal was 13300 fluorescence intensity (a.u.).

For “GGTGTGGGTCGACGACTTGTGTTTTCCTAGGCAGCTTGAACGGAGTCACCTAGTGCAG”, the binding signal is 11900 fluorescence intensity (a.u.).

For the sequence “GGCGTATTTCTTTTTTTTTTTTCAAAGCAACCCGGGAAATCGGAGTCACCTAGTGCAG”, the binding signal is 10200 fluorescence intensity (a.u.).

With “GCGCGCGCTCGCTCGCTCGCTCGTCTCGCCGGATCTACAGCGGAGTCACCTAGTGCAG”, the binding signal is 8700 fluorescence intensity (a.u.).

With “TCTTCTTCTCTTAACCAATTACAACCATTCTTTTTTATCTCGGAGTCACCTAGTGCAG”, the binding signal is 8600 fluorescence intensity (a.u.).

For “ACCATAGAGCTGTTTGTCAGTACTGTTGTTTGCATGTGTACGGAGTCACCTAGTGCAG”, the binding signal was 8540 fluorescence intensity (a.u.).

For “AATTTTCCCTTTAGCAACATCACTAAGGGCCTGTTTAGTTCGGAGTCACCTAGTGCAG”, the binding signal was 8860 fluorescence intensity (a.u.).

Regarding “TCCCTCTCTGCCGCAATCACCGCGCCTCCTCCGCATCCGCCGGAGTCACCTAGTGCAG”, the binding signal is 8460 fluorescence intensity (a.u.).

With “CTTCGCCGTCTGACCCGTCAGCCACCATGCGCCGTCTCCGCGGAGTCACCTAGTGCAG”, the binding signal was 11700 fluorescence intensity (a.u.).

Regarding “TCGTCGATGTCACCGCCACCACCGTCGTCATCGCTGCCTTCGGAGTCACCTAGTGCAG”, the binding signal was 8080 fluorescence intensity (a.u.).

In the case of “TGCATCAATGGTGGCTTGGCTTTCATGTCGCTCCTTGTCGCGGAGTCACCTAGTGCAG”, the binding signal was 9070 fluorescence intensity (a.u.).

Turning to “TCTGATATGACACGCTAAAACTTTTTGTCTCGCGAGCTAACGGAGTCACCTAGTGCAG”, the binding signal is 8320 fluorescence intensity (a.u.).

Consider “TGTTTTTATCTTTGATTGTACTATTGTCTTGTTCATCTGTCGGAGTCACCTAGTGCAG”, for which the binding signal is 13100 fluorescence intensity (a.u.).

On to “TGCCGTGGGATGGGGTTGCGGGAGGAGGAGGGTGCTACTACGGAGTCACCTAGTGCAG”, for which the binding signal is 17000 fluorescence intensity (a.u.).

With “ACAGCACGCCATCCTCGCTCGGCGTCGCATCGCCATCATCCGGAGTCACCTAGTGCAG”, the binding signal is 9200 fluorescence intensity (a.u.).

For the sequence “GGCTGTGTGCTTTCTTCTTTGGGCTCAGTGGATCGGTAAACGGAGTCACCTAGTGCAG”, the binding signal was 12500 fluorescence intensity (a.u.).

With “CTTATTTGGTCTGGATTAATTGTCGATCAAGTCATTATCGCGGAGTCACCTAGTGCAG”, the binding signal was 8170 fluorescence intensity (a.u.).

As to “AATTTTTGTCTCTATAGGGTTTGGTTTCGGTCCGAGGATTCGGAGTCACCTAGTGCAG”, the binding signal is 9610 fluorescence intensity (a.u.).

Regarding “CGATCCGTCCGTCCATCTCCTGCTCCTGCAATGCTAGCTTCGGAGTCACCTAGTGCAG”, the binding signal is 8840 fluorescence intensity (a.u.).

For “TCTTCATCCATATACTCGATCGATCCGAACTTTATCATGACGGAGTCACCTAGTGCAG”, the binding signal is 8280 fluorescence intensity (a.u.).

Regarding “GATGGTGTGGATTGAGCTCTGTATACGTCCCTTCAAGATTCGGAGTCACCTAGTGCAG”, the binding signal was 9220 fluorescence intensity (a.u.).

For the sequence “ATGCATGTTAATTAGTCTGTCACTGATCACTTCATCCCATCGGAGTCACCTAGTGCAG”, the binding signal was 9480 fluorescence intensity (a.u.).

Consider “CTATAATATATATAGCGCACCCTTGCATCAGTTAGTCAACCGGAGTCACCTAGTGCAG”, for which the binding signal is 8680 fluorescence intensity (a.u.).

For “TGTCGTCGTCCTCGCCACCGGATTGTCCCGCCGACGTAGCCGGAGTCACCTAGTGCAG”, the binding signal is 8160 fluorescence intensity (a.u.).

“TCATTCTTCTTATGATATTTTTCTCCTTGCACCTTCAATTCGGAGTCACCTAGTGCAG”: the binding signal is 9180 fluorescence intensity (a.u.).

Turning to “TGAAGCAAGCACCCACATTTCACCATGACACCACCACCACCGGAGTCACCTAGTGCAG”, the binding signal is 8480 fluorescence intensity (a.u.).

As for “GACAAATCTCAGTTTTTCATGTGCCTTTATTATGTCTTCTCGGAGTCACCTAGTGCAG”, the binding signal was 12800 fluorescence intensity (a.u.).
